No constants are given. Whether binding was seen depends on the method and setting. In cells and extracts the contact can be indirect. Some binding calls cover weakened binding; strength is not graded here. Where a sequence is shown, tags or fusion partners need not be part of it.
Biological target: hypoxia-inducible factor 1-alpha (HIF1α) (human (endogenous in HEK 293T)) (UniProt Q16665)
Experiment: co-IP; 500 ug RIPA lysate of HEK 293T cells expressing GFP-CEP41, under normoxia or hypoxia; 2 ug anti-HIF1α or anti-CEP41 antibody with Dynabeads Protein G overnight at 4°C; washed 3 times with PBST (0.5% Tween-20); IgG as negative control

Chains of the proteins cited; added tags and fusions are not shown.
UniProt Q16665: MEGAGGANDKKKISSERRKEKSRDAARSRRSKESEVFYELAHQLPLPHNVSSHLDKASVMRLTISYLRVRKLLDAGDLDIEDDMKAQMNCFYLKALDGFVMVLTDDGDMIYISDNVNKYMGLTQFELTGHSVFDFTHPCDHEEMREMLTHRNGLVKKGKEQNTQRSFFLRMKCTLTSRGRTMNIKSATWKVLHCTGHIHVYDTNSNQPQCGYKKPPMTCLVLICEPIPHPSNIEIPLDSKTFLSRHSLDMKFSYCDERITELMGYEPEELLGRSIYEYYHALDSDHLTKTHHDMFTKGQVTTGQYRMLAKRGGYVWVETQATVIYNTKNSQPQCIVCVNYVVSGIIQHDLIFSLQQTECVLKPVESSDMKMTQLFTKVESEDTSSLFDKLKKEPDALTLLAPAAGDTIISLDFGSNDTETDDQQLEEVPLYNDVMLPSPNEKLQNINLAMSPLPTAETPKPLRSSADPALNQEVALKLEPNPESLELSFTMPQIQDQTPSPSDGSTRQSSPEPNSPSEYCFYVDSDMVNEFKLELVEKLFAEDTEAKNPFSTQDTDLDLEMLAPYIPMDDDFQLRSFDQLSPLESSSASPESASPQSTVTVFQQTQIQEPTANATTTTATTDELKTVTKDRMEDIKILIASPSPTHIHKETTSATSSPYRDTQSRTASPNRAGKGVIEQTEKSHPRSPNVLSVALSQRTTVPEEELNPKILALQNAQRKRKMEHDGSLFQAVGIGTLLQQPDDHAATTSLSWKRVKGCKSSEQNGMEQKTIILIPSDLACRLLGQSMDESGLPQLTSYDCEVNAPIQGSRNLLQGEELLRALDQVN

B1: GFP-CEP41 (centrosomal protein 41) (protein, UniProt Q9BYV8 1-373)
chain: MSLRRHIGNPEYLMKRIPQNPRYQHIKSRLDTGNSMTKYTEKLEEIKKNYRYKKDELFKRLKVTTFAQLIIQVASLSDQTLEVTAEEIQRLEDNDSAASDPDAETTARTNGKGNPGEQSPSPEQFINNAGAGDSSRSTLQSVISGVGELDLDKGPVKKAEPHTKDKPYPDCPFLLLDVRDRDSYQQCHIVGAYSYPIATLSRTMNPYSNDILEYKNAHGKIIILYDDDERLASQAATTMCERGFENLFMLSGGLKVLAQKFPEGLITGSLPASCQQALPPGSARKRSSPKGPPLPAENKWRFTPEDLKKIEYYLEEEQGPADHPSRLNQANSSGRESKVPGARSAQNLPGGGPASHSNPRSLSSGHLQGKPWK
binding: binds

Reference: article PMC7001496
